From the supplement of paper PMC4604168 (melanoma cell lines)
The other results are listed elsewhere or left out. Many values rest on one well or one pass, so single values are uncertain.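 The apoptosis fraction was the count of cleaved-PARP antibody-stained nuclei relative to all DNA-stained nuclei, imaged in 1,536-well plates. Screening doses were set so most cells survived, and baseline and induced cleaved-PARP levels vary greatly across cell lines.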

How the values were obtained:
Assay in all cases: cleaved PARP positive nuclei fraction relative to DMSO control; melanoma cells; higher = more apoptosis
Conditions in all cases: library dose: low library concentration; 72 h
501Mel = system: 501Mel
A101D = system: A101D
A2058 = system: A2058
A375 = system: A375
C32 = system: C32
CBRC008 = system: CBRC008 (line from a melanoma biopsy)
CBRC013 = system: CBRC013 (line from a melanoma biopsy)
CBRC014 = system: CBRC014 (line from a melanoma biopsy)
CBRC016 = system: CBRC016 (line from a melanoma biopsy)
CBRC017 = system: CBRC017 (line from a melanoma biopsy)
COLO792 = system: COLO792
COLO800 = system: COLO800
COLO829 = system: COLO829
G361 = system: G361
IPC-298 = system: IPC-298
IST-MEL1 = system: IST-MEL1
LB2518-MEL = system: LB2518-MEL
LOXIMVI = system: LOXIMVI
MEL-HO = system: MEL-HO

Row | Structure (SMILES) | cleaved PARP positive nuclei fraction (501Mel) [%] | cleaved PARP positive nuclei fraction (A101D) [%] | cleaved PARP positive nuclei fraction (A2058) [%] | cleaved PARP positive nuclei fraction (A375) [%] | cleaved PARP positive nuclei fraction (C32) [%] | cleaved PARP positive nuclei fraction (CBRC008) [%] | cleaved PARP positive nuclei fraction (CBRC013) [%] | cleaved PARP positive nuclei fraction (CBRC014) [%] | cleaved PARP positive nuclei fraction (CBRC016) [%] | cleaved PARP positive nuclei fraction (CBRC017) [%] | cleaved PARP positive nuclei fraction (COLO792) [%] | cleaved PARP positive nuclei fraction (COLO800) [%] | cleaved PARP positive nuclei fraction (COLO829) [%] | cleaved PARP positive nuclei fraction (G361) [%] | cleaved PARP positive nuclei fraction (IPC-298) [%] | cleaved PARP positive nuclei fraction (IST-MEL1) [%] | cleaved PARP positive nuclei fraction (LB2518-MEL) [%] | cleaved PARP positive nuclei fraction (LOXIMVI) [%] | cleaved PARP positive nuclei fraction (MEL-HO) [%]
1 | CC(C)C[C@H](NC(=O)[C@H](Cc1ccccc1)NC(=O)c1cnccn1)B(O)O [Bortezomib] + OCCn1cc(-c2cnc3nnn(Cc4ccc5ncccc5c4)c3n2)cn1 [PF04217903] (first compound 0.001 µM, partner dose 1 µM) | 210 | 326 | 94.2 | 91.2 | 97.7 | 506 | 133 | 147 | 152 | 188 | 56.2 | 107 | 102 | 1100 | 106 | 236 | 429 | 220 | 105
2 | Cc1cc(Nc2cc(N3CCN(C)CC3)nc(/C=C/c3ccccc3)n2)n[nH]1 + O=C(O)c1ccc(-c2c[nH]c3ncc(-c4ccccc4)cc23)cc1C1CCCC1 [GSK650394] (first compound 0.04 µM, partner dose 0.16 µM) | 74.5 | 160 | 112 | 83.1 | 84.5 | 39.4 | 86.5 | 84.7 | 82.4 | 123 | 64.5 | 140 | 154 | 108 | 62.4 | 173 | 88.6 | 54.9 | 45.1
3 | O=C(O)c1ccc2c(c1)nc(Nc1cccc(Cl)c1)c1ccncc12 + CN(C)S(=O)(=O)c1ccc2c(c1)/C(=C/c1cc3c([nH]1)CCCC3)C(=O)N2 [SU6656] (first compound 0.4 µM, partner dose 0.4 µM) | 69.5 | 93.3 | 222 | 85.5 | 186 | 113 | 160 | 254 | 334 | 335 | 73.3 | 51 | 87.9 | 93.4 | 504 | 169 | 107 | 116 | 80.9
4 | Nc1ncn([C@H]2C[C@H](O)[C@@H](CO)O2)c(=O)n1 [decitabine] + O=C(CCCCCCC(=O)Nc1ccccc1)NO [vorinostat] (first compound 0.1 µM, partner dose 0.08 µM) | 97.9 | 101 | 136 | 62 | 148 | 57.1 | 99.9 | 85.4 | 167 | 359 | 131 | 35.5 | 79.4 | 96.4 | 169 | 123 | 317 | 51.2 | 93.3
5 | Nc1ccn([C@@H]2O[C@H](CO)[C@@H](O)C2(F)F)c(=O)n1 [gemcitabine] + CN(NC(=O)CC(=O)NN(C)C(=S)c1ccccc1)C(=S)c1ccccc1 [STA4783] (first compound 0.0004 µM, partner dose 0.006 µM) | 320 | 209 | 52.5 | 984 | 99.4 | 887 | 104 | 575 | 481 | 221 | 120 | 276 | 270 | 73.7 | 110 | 129 | 59.8 | 53.1 | 106
6 | CNC(=O)c1cc(Oc2ccc(NC(=O)Nc3ccc(Cl)c(C(F)(F)F)c3)cc2)ccn1 [sorafenib] + Cn1cncc1[C@@](N)(c1ccc(Cl)cc1)c1ccc2c(c1)c(-c1cccc(Cl)c1)cc(=O)n2C [tipifarnib] (first compound 0.4 µM, partner dose 0.01 µM) | 179 | 82.1 | 115 | 120 | 104 | 144 | 176 | 94.4 | 143 | 94.3 | 111 | 47.5 | 74.6 | 81.3 | 159 | 213 | 51.2 | 357 | 128
7 | CO[C@H]1C[C@@H]2CC[C@@H](C)[C@@](O)(O2)C(=O)C(=O)N2CCCC[C@H]2C(=O)O[C@H]([C@H](C)C[C@@H]2CC[C@@H](OCCO)[C@H](OC)C2)CC(=O)[C@H](C)/C=C(\C)[C@@H](O)[C@@H](OC)C(=O)[C@H](C)C[C@H](C)/C=C/C=C/C=C/1C [everolimus] + O=C(CCCCCCC(=O)Nc1ccccc1)NO [vorinostat] (first compound 0.02 µM, partner dose 0.08 µM) | 289 | 105 | 122 | 80 | 72.7 | 51.7 | 43.2 | 66.1 | 174 | 121 | 213 | 68.5 | 130 | 44.4 | 34.1 | 95.3 | 40.3 | 114 | 256
8 | CNC(=O)c1cc(Oc2ccc(NC(=O)Nc3ccc(Cl)c(C(F)(F)F)c3)cc2)ccn1 [sorafenib] + O=C(Nc1cccc(Cl)c1)Nc1ncc(CCNc2ncnc3ccsc23)s1 [SNS314] (first compound 0.4 µM, partner dose 0.0008 µM) | 73.9 | 89 | 135 | 125 | 238 | 199 | 66.2 | 81 | 88 | 94.1 | 71.8 | 78.7 | 53.8 | 55.4 | 23.8 | 110 | 93.9 | 101 | 87.9
